Data from patent US10544186B2, “Process for the synthesis of amide bonds with the aid of novel catalysts” (Merck Patent GmbH, priority 2016, dated 2020).

Test: Solubility of the amide linking reagents in organic solvents
Assay type: physicochemical
Experimental: All solubility determinations are carried out in a tared gas-tight 4 ml bottle with magnetic stirrer bar. The amide linking reagent (at least 5 mg) is weighed out and a certain amount of the solvent to be investigated is added. The mixture is stirred for 2-5 minutes. If undissolved solid is still present, solvent (50-100 μl) is additionally added, and the mixture is stirred again. As soon as a clear solution is present, the experiment is terminated.

Which “solubility in 9CH2Cl2:1CH3CN” value (solvent 9CH2Cl2:1CH3CN) does the source give for `CN(C)C(n1n[n+]([O-])c2ncccc21)=[N+](C)C.F[P-](F)(F)(F)(F)F` [HATU, 1-(dimethylamino(dimethylamonium-1-ylidene)methyl)-1H-azabenzo[d][1,2,3] triazole 3-oxide hexafluorophosphate, reference compound] here?
Its value is 1.2 mg/mL.

And the “solubility in CH2Cl2” value (solvent CH2Cl2)?
The value was less than 1.2 mg/mL.

And the “solubility in CH3CN” value (solvent CH3CN)?
The value was 212 mg/mL.

What about the “solubility in DMF” value (solvent DMF) of the same compound?
The value was 370 mg/mL.

And the “solubility in Hexane” value (solvent Hexane)?
Its value is less than 1.2 mg/mL.

What about the “solubility in THF” value (solvent THF) of the same compound?
Its value is less than 1.2 mg/mL.

What about the “solubility in Toluene” value (solvent Toluene) of the same compound?
The value was less than 1.2 mg/mL.
